Results deposited as PubChem BioAssay AID1259308 (NCATS, 2017).
This is a random part of about 59,000 reagents tested. Of all reagents, about 1,510 (2.6%) got an active call. 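Calls use total luciferase alone and ignore viability, so some active siRNAs may act by altering cell number.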 Entries without a mark were called inactive. Reagents against one gene are numbered here. Further read-outs or replicates are left out here.

- Screen: 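Knock-downs that increase output of a recombinant reporter protein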 (primary screen)
- System: human HEK293 embryonic kidney cells stably expressing firefly luciferase (HEK-CMV-Luc2-Hygro)
- Reagents: single siRNA against human genes, 0.8 pmol siRNA per well
- Timing: 72 h
- Measurement: 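Reporter luminescence and viable-cell signal on separate replicate plates, given as percent of non-targeting control and median/MAD z-scores, plus per-cell luciferase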
- Reading the numbers: total luciferase, z-score: higher = more reporter protein produced
- Call rule: 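An siRNA counts as active if its total luciferase robust z-score exceeds 3; genes with two or more such siRNAs out of three were retested with fresh siRNAs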
- Meaning of the calls: active = raised luciferase; inactive = no rise

After knock-down of DOCK1 #1, the record shows total luciferase, z-score -0.997.
After knock-down of DOCK1 #2, the screen gave total luciferase, z-score -0.0262.
Depletion of DOCK1 #3 came out at: total luciferase, z-score -0.552.
NGRN #1 showed total luciferase, z-score -0.877.
With knock-down of NGRN #2, the record shows total luciferase, z-score 0.525.
NGRN #3 showed total luciferase, z-score -0.0166.
With knock-down of ADPRHL1 #1, the record shows total luciferase, z-score -0.662.
With knock-down of ADPRHL1 #2, the screen gave total luciferase, z-score -0.223.
ADPRHL1 #3 showed total luciferase, z-score 1.6.
Silencing of CDK17 #1 came out at: total luciferase, z-score 0.659.
With knock-down of CDK17 #2 the results were total luciferase, z-score 1.81.
Against CDK17 #3 the deposit lists total luciferase, z-score 0.552.
After knock-down of MRGPRG #1, the screen gave total luciferase, z-score 1.07.
Against MRGPRG #2, the entry reads total luciferase, z-score -1.47.
Knock-down of MRGPRG #3 resulted in: total luciferase, z-score -1.25.
Silencing of APPL2 #1 gave: total luciferase, z-score -0.0352.
Against APPL2 #2 the deposit lists total luciferase, z-score -1.33.
Knock-down of APPL2 #3 resulted in: total luciferase, z-score -0.927.
Depletion of PSMD1 #1 came out at: total luciferase, z-score -0.606.
Depletion of PSMD1 #2 gave: total luciferase, z-score -0.17.
Against PSMD1 #3, the entry reads total luciferase, z-score -0.793.

Already shown: entries from further up.
PSMD1 #2 — total luciferase, z-score = -0.17
PSMD1 #3 — total luciferase, z-score = -0.793
